Values from PubChem BioAssay AID743121 (NCATS, 2013).
In all, the deposit lists about 26,000 reagents; shown is a random part of them. 167 of them (0.63%) were called active. 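Calls are per gene from RSA p-values that are not deposited; an individual active-marked siRNA can sensitise only weakly.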 Reagents against one gene are numbered here. Not all columns of the deposit are shown.

- Assay: 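Partners whose loss is lethal together with topoisomerase I blockade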 (primary screen)
- System: MDA-MB-231 cells, a human breast cancer line
- Reagents: single siRNA against human genes, 20 nM siRNA (0.8 pmol per well)
- Time to read-out: 120 h (drug added 48 h after transfection, read 72 h later)
- Conditions: camptothecin 20 nM (about EC30) for 72 h; vehicle 0.1% DMSO in parallel plates
- Measurement: 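Cell viability by ATP luminescence (CellTiter-Glo) as % of non-targeting siRNA wells, and the log2 ratio of viability without drug over viability with camptothecin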
- Reading the numbers: log2 vehicle/camptothecin viability: higher = stronger sensitisation to camptothecin; viability with camptothecin: higher = more viable cells
- Units: viability with camptothecin in % of control
- Rule for the call: 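Each gene scored by redundant siRNA activity (RSA) over its individual siRNA ratios; a gene is called active at p < 0.001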

Silencing of PTK7 #1 gave: log2 vehicle/camptothecin viability -0.193; viability with camptothecin 90.2; inactive.
With knock-down of PTK7 #2, the record shows log2 vehicle/camptothecin viability -0.274; viability with camptothecin 86; inactive.
PTK7 #3 scored log2 vehicle/camptothecin viability 0.225; viability with camptothecin 71; inactive.
After knock-down of PTK7 #4, the record shows log2 vehicle/camptothecin viability -0.0595; viability with camptothecin 49.1; inactive.
After knock-down of CLIC2 #1 the results were log2 vehicle/camptothecin viability -0.17; viability with camptothecin 113; inactive.
For CLIC2 #2, the entry reads log2 vehicle/camptothecin viability -0.12; viability with camptothecin 56.3; inactive.
CLIC2 #3 showed log2 vehicle/camptothecin viability -0.06; viability with camptothecin 86.7; inactive.
Against CRLF2 #1, the values are log2 vehicle/camptothecin viability -0.345; viability with camptothecin 55.3; inactive.
After knock-down of CRLF2 #2, the record shows log2 vehicle/camptothecin viability -0.033; viability with camptothecin 73.4; inactive.
Against CRLF2 #3, the entry reads log2 vehicle/camptothecin viability -0.343; viability with camptothecin 71.8; inactive.
CRLF2 #4 gave log2 vehicle/camptothecin viability -0.104; viability with camptothecin 97.2; inactive.
Knock-down of UNKL #1 came out at: log2 vehicle/camptothecin viability 0.128; viability with camptothecin 58.7; inactive.
UNKL #2 scored log2 vehicle/camptothecin viability -0.312; viability with camptothecin 109; inactive.
Depletion of UNKL #3 gave: log2 vehicle/camptothecin viability -0.124; viability with camptothecin 72.6; inactive.
After knock-down of UNKL #4, the record shows log2 vehicle/camptothecin viability -0.179; viability with camptothecin 69.4; inactive.
UNKL #5 showed log2 vehicle/camptothecin viability -0.0855; viability with camptothecin 61.3; inactive.
Depletion of UNKL #6 gave: log2 vehicle/camptothecin viability -0.0204; viability with camptothecin 98.3; inactive.
Knock-down of ANAPC2 #1 resulted in: log2 vehicle/camptothecin viability -1.02; viability with camptothecin 34.2; inactive.
With knock-down of ANAPC2 #2, the screen gave log2 vehicle/camptothecin viability -0.72; viability with camptothecin 29.4; inactive.
For ANAPC2 #3, the values are log2 vehicle/camptothecin viability -0.462; viability with camptothecin 12.8; inactive.
ANAPC2 #4 scored log2 vehicle/camptothecin viability -1.02; viability with camptothecin 85; inactive.
After knock-down of ADGRG2 #1, the screen gave log2 vehicle/camptothecin viability -0.118; viability with camptothecin 68.8; inactive.
ADGRG2 #2 scored log2 vehicle/camptothecin viability -0.0647; viability with camptothecin 45.9; inactive.
Against ADGRG2 #3 the deposit lists log2 vehicle/camptothecin viability 0.521; viability with camptothecin 36.2; inactive.
With knock-down of ADGRG2 #4, the screen gave log2 vehicle/camptothecin viability -0.0344; viability with camptothecin 59.9; inactive.
FST #1 showed log2 vehicle/camptothecin viability -0.4; viability with camptothecin 76.1; inactive.
For FST #2, the entry reads log2 vehicle/camptothecin viability 0.11; viability with camptothecin 90; inactive.
FST #3 gave log2 vehicle/camptothecin viability 0.0712; viability with camptothecin 60.9; inactive.
Against FST #4, the entry reads log2 vehicle/camptothecin viability -0.266; viability with camptothecin 54.6; inactive.
Silencing of CDC27 #1 gave: log2 vehicle/camptothecin viability -0.953; viability with camptothecin 67.2; inactive.
Depletion of CDC27 #2 gave: log2 vehicle/camptothecin viability -1.21; viability with camptothecin 57.2; inactive.
For CDC27 #3, the entry reads log2 vehicle/camptothecin viability -0.521; viability with camptothecin 74.3; inactive.
Silencing of CDC27 #4 gave: log2 vehicle/camptothecin viability -0.0159; viability with camptothecin 88.4; inactive.
With knock-down of PPRC1 #1, the record shows log2 vehicle/camptothecin viability -0.478; viability with camptothecin 56.5; inactive.
Against PPRC1 #2 the deposit lists log2 vehicle/camptothecin viability -0.296; viability with camptothecin 93; inactive.
Knock-down of PPRC1 #3 resulted in: log2 vehicle/camptothecin viability 0.0415; viability with camptothecin 47.7; inactive.
Against PPRC1 #4, the values are log2 vehicle/camptothecin viability -0.393; viability with camptothecin 73.9; inactive.
